Data reported in US20260317349A1, “MACROCYCLIC CHELATING AGENT CAPABLE OF SITE-SPECIFIC MODIFICATION, RADIONUCLIDE PROBE, AND USE THEREOF” (SHANGHAI INSTITUTE OF MATERIA MEDICA, CHINESE ACADEMY OF …, priority 2023, published 2026).

Assay: Radiolabeling of compound with 68Ga, labeling rate by thin-layer chromatography (0.1-20 μg, 25° C. and 37° C., 10 min)
Experimental: Experimental Example 1: Labeling Rates of Compound I-5 with Different Masses Labeled with ^68Ga at 25° C. And 37° C.
Compound I-5 was dissolved in water at a concentration of 10 μg/μL. Two groups were set, and for each group, seven samples in total with the masses of 0.1 μg, 0.5 μg, 1 μg, 2 μg, 5 μg, 10 μg, and 20 μg were added in centrifuge tubes, respectively. Then 45 μL of a 1.5M sodium acetate solution and 430 μL of a gallium chloride eluent (1 mCi) were added, mixed thoroughly, and placed at 25° C. and 37° C. for 10 min. After labeling, samples were subjected to thin-layer chromatography, and the labeling rate was calculated after instrument analysis.

In the case of `C#CCN1Cc2cccc(n2)CN(CC(=O)O)Cc2cc(C)cc(c2O)CN(CC(=O)O)Cc2cccc(n2)CN(CC(=O)O)Cc2cc(C)cc(c2O)C1` [Compound I-5], the “labeling efficiency, 37° C. versus 25° C.” value (0.5 μg or more) is reported as “higher at 37 °C than those at 25 °C”, the labeling rate (25° C., 0.1-20 μg compound, 1 mCi gallium chloride eluent, sodium acetate) is reported as “over 90%” and the labeling rate (37° C., 20 μg) is reported as about 100%. For the same molecule, the labeling rate (37° C., 0.1-20 μg compound, 1 mCi gallium chloride eluent, sodium acetate) was “over 90%”.
